# Library screen at single concentrations

Sequences of proteins named here, by UniProt entry; tags and fusion partners are left off. Residues count along the entry.
UniProt Q8IDJ8, 1-583: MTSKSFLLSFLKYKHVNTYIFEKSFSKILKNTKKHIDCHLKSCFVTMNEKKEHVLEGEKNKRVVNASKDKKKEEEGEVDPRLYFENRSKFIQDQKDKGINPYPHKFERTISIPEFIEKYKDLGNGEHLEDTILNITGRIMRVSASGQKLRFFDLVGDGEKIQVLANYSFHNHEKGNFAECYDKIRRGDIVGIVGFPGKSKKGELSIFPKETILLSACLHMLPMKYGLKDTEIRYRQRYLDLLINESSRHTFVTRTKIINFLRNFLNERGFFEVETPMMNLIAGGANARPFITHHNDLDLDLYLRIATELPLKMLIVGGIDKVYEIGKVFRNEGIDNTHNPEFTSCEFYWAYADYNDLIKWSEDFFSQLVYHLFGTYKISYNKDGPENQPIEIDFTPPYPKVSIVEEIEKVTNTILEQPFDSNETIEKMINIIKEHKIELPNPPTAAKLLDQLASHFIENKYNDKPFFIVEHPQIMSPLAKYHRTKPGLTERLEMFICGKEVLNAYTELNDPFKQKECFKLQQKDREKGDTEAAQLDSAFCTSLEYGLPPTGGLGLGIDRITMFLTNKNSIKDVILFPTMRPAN

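Lysine-tRNA ligase, Plasmodium falciparum 3D7 (UniProt Q8IDJ8). Enzyme assay of the cytosolic lysyl-tRNA synthetase in 384-well plates, read by luminescence. Tested at 30 µM. Higher reads as stronger inhibition, judged from the few compounds that gave an IC50. Of about 69,000 compounds tested this way, about 49 (0.071%) reached 50% or more in at least one test.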

Results are given as percent effect. The controls that fix the scale are not given in the record; negative values are as filed. Compounds were drawn at random from those tested, without regard to their results.

Compound: Cc1nc(C)n(CC2CCCN2CC(=O)Nc2cc(C)on2)n1 (stereo not given)
percent effect: -1.405

Compound: Cc1cc(C(=O)N2CCCC(c3noc(C)n3)C2)[nH]n1 (stereo not given)
percent effect: 0.4148

Compound: CN(C)S(=O)(=O)N1CC[C@]2(C[C@@H](Oc3ncccc3F)CO2)C1
percent effect: 7.429

Compound: Cc1nn2cc(CCNC(=O)c3cc(C(C)C)nn3C)nc2s1
percent effect: -0.3107

Compound: CN(Cc1cc(Br)c2c(c1)OCO2)Cc1cscn1
percent effect: 1.864

Compound: CC(C)CC(=O)NCc1cccc(OCCN(C)C2CCOCC2)c1
percent effect: 1.995

Compound: CCn1nc(C)cc1C(=O)Nc1cc(F)ccc1OCC1CCCO1 (stereo not given)
percent effect: 3.026

Compound: O=C(c1ccc(-n2cccn2)nc1)N1CCCC(n2cccn2)C1 (stereo not given)
percent effect: 1.353

Compound: CCN(CC)C(=O)CN1CCc2nc(C3CCNCC3)nc(NC)c2C1
percent effect: 0.07153

Compound: CCN1C[C@H]2CCN(C(=O)c3cc[nH]n3)CC[C@H]2S1(=O)=O
percent effect: -1.237

Compound: O=C(c1cccnc1)N1CCO[C@@H]2CNC[C@@H]21
percent effect: 4.745

Compound: Cc1cc(C2CCCN(C(=O)c3cnn(C)c3)C2)ccn1 (stereo not given)
percent effect: 1.906

Compound: CC(C)Oc1ncnc2c1CCN(Cc1ccoc1)CC2
percent effect: 5.511

Compound: CN(Cc1ccco1)[C@@H]1CN(Cc2cccs2)C[C@@H]2CCCO[C@@H]21
percent effect: 7.732

Compound: Cc1oncc1C(=O)N1CC[C@@H]2[C@@H]1CC(=O)N2Cc1cccnc1
percent effect: 3.671

Compound: CSc1nc(N)c2c(n1)N=C1COC(O)=C1C2c1cccc(O)c1 (stereo not given)
percent effect: 4.522

Compound: COc1c(C2SCC(=O)Nc3[nH]ncc32)cc2c(c1OC)OCO2 (stereo not given)
percent effect: 4.573

Compound: CN(C)[C@@H]1CN(C(=O)CCc2ccccc2)[C@@H]2CCCO[C@H]12
percent effect: 2.356

Compound: c1csc(CN2CCC3(COCCN(CC4CC4)C3)C2)n1 (stereo not given)
percent effect: 2.091

Compound: CCc1nccn1C1CCCN(C(=O)c2ccc(C(N)=O)cn2)C1 (stereo not given)
percent effect: 2.437

Compound: CC(C)c1noc(CNC2CCCN(Cc3noc(C4CC4)n3)C2)n1 (stereo not given)
percent effect: -2.334

Compound: CC1(C)CC(N2Cc3nc(N)ncc3C2=O)CC(C)(C)N1
percent effect: 1.773

Compound: NC(=O)c1cnn2c(C3CCCN(C4CCOCC4)C3)ccnc12 (stereo not given)
percent effect: 0.1993

Compound: Cn1cc(C[C@H]2[C@H](O)CCN2C(=O)C2CCCC2)cn1
percent effect: -0.6846

Compound: COCCN1CCC2(CC1)CN(C(=O)N(C)C)c1ccc(C)cc12
percent effect: 0.8732

Compound: CS(=O)(=O)N1CCn2c(C(=O)N3CCOCC3)cnc2C1
percent effect: 13.65

Compound: Cc1noc(C)c1C(=O)N1CCC(c2cc3cnccc3[nH]2)CC1
percent effect: 3.457

Compound: Clc1ccc(N2CCC(OCC3CCCCO3)CC2)nc1 (stereo not given)
percent effect: 4.45

Compound: CN1CCN([C@@H]2CN(C(=O)c3cc4cccc(F)c4[nH]3)C[C@H]2O)CC1
percent effect: -0.5201

Compound: CCN(Cc1ccc(Cl)s1)S(=O)(=O)CC
percent effect: 5.636

Compound: Cc1[nH]c(-c2ccccc2)nc1C(=O)N1CCC2(CCCO2)CC1
percent effect: 2.623

Compound: Cc1nc(N)ccc1CC1COc2ccccc2C1 (stereo not given)
percent effect: 2.207

Compound: COc1ccc(C)cc1-c1csc(Cn2ccc(=O)[nH]c2=O)n1
percent effect: 4.988

Compound: COCc1noc(C2(c3ccc(Br)cc3)CCOCC2)n1
percent effect: -0.8788

Compound: NS(=O)(=O)CCNC(=O)c1cc2ccccc2nc1N1CCCC1
percent effect: 9.838

Compound: CN(Cc1cnn(C)c1)C(=O)NC1CCN(c2ncccn2)CC1
percent effect: 4.626

Compound: O=C([C@@H]1COC[C@H]2CN(C3CCCC3)C[C@H]21)N1CCCCO1
percent effect: -3.637

Compound: Cc1cnc(CN2CCOC(Cn3nc(C)cc3C)C2)cn1 (stereo not given)
percent effect: -1.708

Compound: N#CCSCCCN1CCN(C(=O)c2ccccc2F)CC1
percent effect: -27.2

Compound: CC(C)CS(=O)(=O)CC(=O)N(C)Cc1ccc(OC(F)F)cc1
percent effect: -4.14

Compound: O=C(c1ccncc1)N1CCC2(CC1)CCN(C(=O)c1cccnc1)C2
percent effect: 4.531

Compound: CC(Nc1ncnc2c1NC(=O)CN2)c1ccc2c(c1)OCO2 (stereo not given)
percent effect: 7.38

Compound: O=C(Cc1ccccn1)N1CCC(O)(Cn2ccc3ccncc32)CC1
percent effect: -0.9508

Compound: c1cnc(NCc2cncc3c2CCN(Cc2ccoc2)C3)nc1
percent effect: -0.09288

Compound: NC(CNS(=O)(=O)Cc1cccc2cccnc12)c1ccccc1 (stereo not given)
percent effect: -5.129

Compound: CCc1noc(C)c1C(=O)N1CCC(c2[nH]ncc2S(C)(=O)=O)C1 (stereo not given)
percent effect: 3.11

Compound: Cc1cccc(Nc2cc(C)nc(C3CCCCN3CC(N)=O)n2)n1 (stereo not given)
percent effect: 2.792

Compound: CCCN1CCC(CNC(=O)N2CCCC2c2c(C)n[nH]c2C)CC1 (stereo not given)
percent effect: 0.1765

Compound: CC(C)CS(=O)(=O)CC(=O)NC(C)c1nnc2n1CCC2 (stereo not given)
percent effect: 0.7331

Compound: N#Cc1ncn(CC(=O)N2CCCC2c2cccs2)n1 (stereo not given)
percent effect: 4.038

Compound: COc1ccc(C)cc1C(C(=O)O)N1CCN(Cc2ccccn2)CC1 (stereo not given)
percent effect: 3.323

Compound: CCn1nc(C)c2nc(C(C)C)nc(NCCOC)c21
percent effect: 2.297

Compound: CCOc1ccc(C(=O)NC2CC2)cc1C
percent effect: 1.825

Compound: Cn1cnc2ccc(NC(=O)CC3CCN(C4CCCCC4)CC3)cc21
percent effect: 0.6403

Compound: CS(=O)(=O)NCc1ccc(C(=O)NCc2ccc3c(c2)CCC3)o1
percent effect: 5.47

Compound: Cn1cc(NC(=O)N2CCC(OCc3ccccc3)CC2)ccc1=O
percent effect: 9.189

3 of the entries, repeated:

Compound	percent effect
Cn1cc(C[C@H]2[C@H](O)CCN2C(=O)C2CCCC2)cn1	-0.6846
CCc1noc(C)c1C(=O)N1CCC(c2[nH]ncc2S(C)(=O)=O)C1 (stereo not given)	3.11
CN1CCN([C@@H]2CN(C(=O)c3cc4cccc(F)c4[nH]3)C[C@H]2O)CC1	-0.5201

Data taken from ChEMBL document CHEMBL3988442, “University of Dundee, Small-Polar-MMV Screening Library” (2021).